Reference: patent US20100298285A1, “Biclycloheteroaryl Compounds as P2x7 Modulators and Uses Thereof” (priority 2006, published 2010)
The name of at least one read-out is uncertain.

Test system: IL-1β release, THP-1 cells
Assay: IL-1β release assay in differentiated THP-1 cells stimulated with BzATP (Example 9)
Type: cell-based, human
Details: BzATP 250 uM, "+" symbols = inhibition at 0.3 μM, "*" symbols = inhibition at 0.1 μM
Summary of the method: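 THP-1 cells differentiated 16 h with 100 ng/mL LPS + 100 ng/mL IFN-γ, re-primed 2 h with fresh LPS 100 ng/mL, pretreated 30 min with compound, then stimulated with BzATP 250 uM final for 45 min. Supernatant IL-1β by ELISA; background-adjusted % inhibition, IC50 from four-parameter logistic fit.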

Row | SMILES | IL-1β% Inhib. @ 0.3 or 0.1 μM
1 | O=C(Cc1cccc(C(F)(F)F)c1F)Nc1c(Cl)ccc2c1CCN(S(=O)(=O)c1ccc(Oc3ccccn3)cc1)C2 [Compound 3302] | ++ (compound exhibited 26-50% inhibition at 0.3 μM concentration)
2 | O=C(Cc1cccc(C(F)(F)F)c1F)Nc1c(Cl)ccc2c1CCN(S(=O)(=O)c1ccc(F)cc1)C2 [Compound 3303] | ++ (compound exhibited 26-50% inhibition at 0.3 μM concentration)
3 | CC(C)S(=O)(=O)N1CCc2c(ccc(Cl)c2NC(=O)Cc2ccc(C(F)(F)F)c(F)c2)C1 [Compound 3304] | ++++ (compound exhibited 76% or greater inhibition at 0.3 μM concentration)
4 | O=C(Cc1cccc(C(F)(F)F)c1F)Nc1c(Cl)ccc2c1CCN(S(=O)(=O)c1cccc(Cl)c1)C2 [Compound 3305] | + (compound exhibited 0-25% inhibition at 0.3 μM concentration)
5 | O=C(Cc1cccc(C(F)(F)F)c1F)Nc1c(Cl)ccc2c1CCN(S(=O)(=O)c1cc(F)ccc1F)C2 [Compound 3306] | ++ (compound exhibited 26-50% inhibition at 0.3 μM concentration)
6 | O=C(Cc1ccc(C(F)(F)F)c(F)c1)Nc1c(Cl)ccc2c1CCN(S(=O)(=O)Cc1ccc(F)cc1)C2 [Compound 3307] | + (compound exhibited 0-25% inhibition at 0.3 μM concentration)
7 | O=C(Cc1cccc(C(F)(F)F)c1F)Nc1c(Cl)ccc2c1CCN(S(=O)(=O)c1ccc(Oc3ncc(C(F)(F)F)cc3Cl)cc1)C2 [Compound 3308] | ++ (compound exhibited 26-50% inhibition at 0.3 μM concentration)
8 | O=C(Cc1ccc(C(F)(F)F)c(F)c1)Nc1c(Cl)ccc2c1CCN(S(=O)(=O)Cc1ccc(C(F)(F)F)cc1)C2 [Compound 3309] | +++ (compound exhibited 51-75% inhibition at 0.3 μM concentration)
9 | CC(C)c1ccc(S(=O)(=O)N2CCc3c(ccc(Cl)c3NC(=O)Cc3cccc(C(F)(F)F)c3F)C2)cc1 [Compound 3310] | + (compound exhibited 0-25% inhibition at 0.3 μM concentration)
10 | COc1ccc(S(=O)(=O)N2CCc3c(ccc(Cl)c3NC(=O)Cc3cccc(C(F)(F)F)c3F)C2)cc1 [Compound 3311] | ++ (compound exhibited 26-50% inhibition at 0.3 μM concentration)
11 | O=C(Cc1ccc(C(F)(F)F)c(F)c1)Nc1c(Cl)ccc2c1CCN(S(=O)(=O)c1cccc(Cl)c1)C2 [Compound 3312] | ++ (compound exhibited 26-50% inhibition at 0.3 μM concentration)
12 | O=C(Cc1cccc(C(F)(F)F)c1F)Nc1c(Cl)ccc2c1CCN(S(=O)(=O)C1CC1)C2 [Compound 3313] | ++++ (compound exhibited 76% or greater inhibition at 0.3 μM concentration)
13 | O=C(Cc1cccc(C(F)(F)F)c1F)Nc1c(Cl)ccc2c1CCN(S(=O)(=O)c1ccccc1-c1ccccc1)C2 [Compound 3314] | ++ (compound exhibited 26-50% inhibition at 0.3 μM concentration)
14 | O=C(Cc1cccc(C(F)(F)F)c1F)Nc1c(Cl)ccc2c1CCN(S(=O)(=O)c1ccc3ccccc3c1)C2 [Compound 3315] | ++ (compound exhibited 26-50% inhibition at 0.3 μM concentration)
15 | O=C(Cc1cccc(C(F)(F)F)c1F)Nc1c(Cl)ccc2c1CCN(S(=O)(=O)c1ccccc1Oc1ccccc1)C2 [Compound 3316] | + (compound exhibited 0-25% inhibition at 0.3 μM concentration)
16 | O=C(Cc1cccc(C(F)(F)F)c1F)Nc1c(Cl)ccc2c1CCN(S(=O)(=O)c1ccc(C(F)(F)F)cc1)C2 [Compound 3317] | ++ (compound exhibited 26-50% inhibition at 0.3 μM concentration)
17 | O=C(Cc1ccc(C(F)(F)F)c(F)c1)Nc1c(Cl)ccc2c1CCN(S(=O)(=O)c1cccc3ccccc13)C2 [Compound 3318] | ++ (compound exhibited 26-50% inhibition at 0.3 μM concentration)
18 | O=C(Cc1cccc(C(F)(F)F)c1F)Nc1c(Cl)ccc2c1CCN(S(=O)(=O)c1ccc(Cl)cc1)C2 [Compound 3319] | ++ (compound exhibited 26-50% inhibition at 0.3 μM concentration)
19 | COc1cccc(S(=O)(=O)N2CCc3c(ccc(Cl)c3NC(=O)Cc3cccc(C(F)(F)F)c3F)C2)c1 [Compound 3320] | ++ (compound exhibited 26-50% inhibition at 0.3 μM concentration)
20 | O=C(Cc1ccc(C(F)(F)F)c(F)c1)Nc1c(Cl)ccc2c1CCN(S(=O)(=O)c1cc(F)ccc1F)C2 [Compound 3321] | ++++ (compound exhibited 76% or greater inhibition at 0.3 μM concentration)
21 | CCS(=O)(=O)N1CCc2c(ccc(Cl)c2NC(=O)Cc2cccc(C(F)(F)F)c2F)C1 [Compound 3322] | + (compound exhibited 0-25% inhibition at 0.3 μM concentration)
22 | Cc1ccc(-c2ccccc2S(=O)(=O)N2CCc3c(ccc(Cl)c3NC(=O)Cc3ccc(C(F)(F)F)c(F)c3)C2)cc1 [Compound 3323] | + (compound exhibited 0-25% inhibition at 0.3 μM concentration)
23 | Cc1c(Cl)cccc1S(=O)(=O)N1CCc2c(ccc(Cl)c2NC(=O)Cc2cccc(C(F)(F)F)c2F)C1 [Compound 3324] | + (compound exhibited 0-25% inhibition at 0.3 μM concentration)

Row | SMILES | IL-1β% Inhib. @ 0.3 or 0.1 μM
24 | O=C(Cc1cccc(C(F)(F)F)c1F)Nc1c(Cl)ccc2c1CCN(S(=O)(=O)c1ccc(Cl)cc1F)C2 [Compound 3325] | + (compound exhibited 0-25% inhibition at 0.3 μM concentration)
25 | O=C(Cc1cccc(C(F)(F)F)c1F)Nc1c(Cl)ccc2c1CCN(S(=O)(=O)c1cccc(F)c1)C2 [Compound 3326] | + (compound exhibited 0-25% inhibition at 0.3 μM concentration)
26 | CCCCS(=O)(=O)N1CCc2c(ccc(Cl)c2NC(=O)Cc2cccc(C(F)(F)F)c2F)C1 [Compound 3327] | ++++ (compound exhibited 76% or greater inhibition at 0.3 μM concentration)
27 | Cc1ccc(-c2ccccc2S(=O)(=O)N2CCc3c(ccc(Cl)c3NC(=O)Cc3cccc(C(F)(F)F)c3F)C2)cc1 [Compound 3328] | + (compound exhibited 0-25% inhibition at 0.3 μM concentration)
28 | O=C(Cc1ccc(C(F)(F)F)c(F)c1)Nc1c(Cl)ccc2c1CCN(S(=O)(=O)c1cccc(OC(F)(F)F)c1)C2 [Compound 3329] | + (compound exhibited 0-25% inhibition at 0.3 μM concentration)
29 | O=C(Cc1cccc(C(F)(F)F)c1F)Nc1c(Cl)ccc2c1CCN(S(=O)(=O)c1cccc(Oc3ccc(Cl)c(Cl)c3)c1)C2 [Compound 3330] | + (compound exhibited 0-25% inhibition at 0.3 μM concentration)
30 | COc1ccc(-c2ccc(S(=O)(=O)N3CCc4c(ccc(Cl)c4NC(=O)Cc4cccc(C(F)(F)F)c4F)C3)cc2)cc1 [Compound 3331] | + (compound exhibited 0-25% inhibition at 0.3 μM concentration)
31 | O=C(Cc1ccc(C(F)(F)F)c(F)c1)Nc1c(Cl)ccc2c1CCN(S(=O)(=O)c1ccc(C(F)(F)F)cc1)C2 [Compound 3332] | + (compound exhibited 0-25% inhibition at 0.3 μM concentration)
32 | CC(C)S(=O)(=O)N1CCc2c(ccc(Cl)c2NC(=O)Cc2cccc(C(F)(F)F)c2F)C1 [Compound 3333] | ++++ (compound exhibited 76% or greater inhibition at 0.3 μM concentration)
33 | O=C(Cc1ccc(C(F)(F)F)c(F)c1)Nc1c(Cl)ccc2c1CCN(S(=O)(=O)c1cccc(C(=O)O)c1)C2 [Compound 3334] | + (compound exhibited 0-25% inhibition at 0.3 μM concentration)
34 | O=C(Cc1cccc(C(F)(F)F)c1F)Nc1c(Cl)ccc2c1CCN(S(=O)(=O)Cc1ccccc1)C2 [Compound 3335] | ++ (compound exhibited 26-50% inhibition at 0.3 μM concentration)
35 | O=C(Cc1ccc(C(F)(F)F)c(F)c1)Nc1c(Cl)ccc2c1CCN(S(=O)(=O)c1ccc(Oc3ccccn3)cc1)C2 [Compound 3336] | ++ (compound exhibited 26-50% inhibition at 0.3 μM concentration)
36 | O=C(Cc1ccc(C(F)(F)F)c(F)c1)Nc1c(Cl)ccc2c1CCN(S(=O)(=O)c1cc(Cl)ccc1F)C2 [Compound 3337] | ++ (compound exhibited 26-50% inhibition at 0.3 μM concentration)
37 | O=C(Cc1ccc(C(F)(F)F)c(F)c1)Nc1c(Cl)ccc2c1CCN(S(=O)(=O)c1cccc(F)c1)C2 [Compound 3338] | + (compound exhibited 0-25% inhibition at 0.3 μM concentration)
38 | O=C(Cc1ccc(C(F)(F)F)c(F)c1)Nc1c(Cl)ccc2c1CCN(S(=O)(=O)Cc1cccc(C(F)(F)F)c1)C2 [Compound 3339] | + (compound exhibited 0-25% inhibition at 0.3 μM concentration)
39 | O=C(Cc1cccc(C(F)(F)F)c1F)Nc1c(Cl)ccc2c1CCN(S(=O)(=O)c1ccccc1)C2 [Compound 3340] | + (compound exhibited 0-25% inhibition at 0.3 μM concentration)
40 | O=C(Cc1cccc(C(F)(F)F)c1F)Nc1c(Cl)ccc2c1CCN(S(=O)(=O)Cc1ccc(F)cc1)C2 [Compound 3341] | ++ (compound exhibited 26-50% inhibition at 0.3 μM concentration)
41 | O=C(Cc1cccc(C(F)(F)F)c1F)Nc1c(Cl)ccc2c1CCN(S(=O)(=O)CC(F)(F)F)C2 [Compound 3342] | ++ (compound exhibited 26-50% inhibition at 0.3 μM concentration)
42 | O=C(Cc1ccc(C(F)(F)F)c(F)c1)Nc1c(Cl)ccc2c1CCN(S(=O)(=O)Cc1ccccc1Cl)C2 [Compound 3343] | ++++ (compound exhibited 76% or greater inhibition at 0.3 μM concentration)
43 | O=C(Cc1cccc(C(F)(F)F)c1F)Nc1c(Cl)ccc2c1CCN(S(=O)(=O)c1cc(Cl)ccc1Cl)C2 [Compound 3344] | + (compound exhibited 0-25% inhibition at 0.3 μM concentration)
44 | O=C(Cc1ccc(C(F)(F)F)c(F)c1)Nc1c(Cl)ccc2c1CCN(S(=O)(=O)c1ccc(OC(F)(F)F)cc1)C2 [Compound 3345] | + (compound exhibited 0-25% inhibition at 0.3 μM concentration)
45 | O=C(Cc1cccc(C(F)(F)F)c1F)Nc1c(Cl)ccc2c1CCN(S(=O)(=O)c1ccccc1C(F)(F)F)C2 [Compound 3346] | +++ (compound exhibited 51-75% inhibition at 0.3 μM concentration)
